Data published in paper PMC4737065.
These are yes or no findings as the source states them, for the method shown.

What follows are substances tested against T1, FLOURY ENDOSPERM7 (FLO7) (rice (Oryza sativa)) (UniProt Q337M4) (assay: two-hybrid; yeast two-hybrid; FLO7 in pGBKT7, the tested genes in pGADT7; transformation and screening by the manufacturer's instructions (Clontech)).
T1 sequence: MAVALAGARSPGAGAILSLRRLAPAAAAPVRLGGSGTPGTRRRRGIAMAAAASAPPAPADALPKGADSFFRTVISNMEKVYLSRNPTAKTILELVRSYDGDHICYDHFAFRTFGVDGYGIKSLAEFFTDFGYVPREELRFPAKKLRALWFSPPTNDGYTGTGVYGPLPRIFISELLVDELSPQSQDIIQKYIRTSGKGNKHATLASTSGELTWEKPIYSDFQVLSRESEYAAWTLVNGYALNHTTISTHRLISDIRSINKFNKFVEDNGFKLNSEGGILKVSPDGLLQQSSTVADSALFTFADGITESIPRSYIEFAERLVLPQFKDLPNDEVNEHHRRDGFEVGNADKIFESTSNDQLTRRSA

binding, no binding:
FLO6 (rice (Oryza sativa))
FLO2 (rice (Oryza sativa))
FLO4 (rice (Oryza sativa))
